About 18,000 (4.4%) of roughly 410,000 compounds were called active. The inconclusive results got no clear call from the source; some entries with a clear call stand among them for comparison. Cut-off read from the data, not from the text of the source: active = activity change below about -60%; inconclusive = no clear call, values can overlap the other calls; inactive = above about -39%.
test: qHTS Assay for inhibitors of the human cytomegalovirus (HCMV); conditions: HFF cells, HCMV-luciferase reporter, 72 h; at 57.5 µM; hits give low values
In short: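 Human foreskin fibroblasts infected with luciferase-reporter HCMV at MOI 1 PFU/cell, compounds at two doses. Luciferase measured 72 h post infection; normalized to buffer-only basal and Salinomycin (10uM) controls.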
% is set by controls: 0 for no effect and ±100 for the full control effect.

**Q.** For `COC(=O)C1(C(=O)OC)C[C@H](/C=C/c2ccccc2)N(Cc2ccccc2OC)[C@@H]1c1cccs1`, which activity change, negative = inhibition is on record?
**A.** Its activity change, negative = inhibition is inconclusive: -45.9%.

**Q.** With `O=c1c2ccccc2c(=O)n(Cc2ccccc2)n1Cc1ccccc1` as the molecule, how does the activity change, negative = inhibition read?
**A.** The activity change, negative = inhibition was inconclusive: -53%.

**Q.** With `Cc1c(Cl)cccc1NC(=S)NCc1cccs1` as the molecule, how does the activity change, negative = inhibition read?
**A.** The activity change, negative = inhibition was active: -79.7%.

**Q.** With `CC(=O)C1C(=O)c2c(cccc2[N+](=O)[O-])C1=Nc1ccccc1C` (centres undefined) as the molecule, how does the activity change, negative = inhibition read?
**A.** The activity change, negative = inhibition was inconclusive: -45.9%.

**Q.** Which activity change, negative = inhibition does the source give for `COc1ccc2c(c1)C(=O)C(=O)N2CC1COc2ccccc2O1` (centres undefined) here?
**A.** Its activity change, negative = inhibition is active: -81.5%.

**Q.** For `COc1ccccc1C=CC(=O)C=Cc1ccccc1OC`, which activity change, negative = inhibition is on record?
**A.** Its activity change, negative = inhibition is active: -99.9%.

**Q.** For `Cc1ccc2cc(/C=C/C(=O)c3ccco3)c(Cl)nc2c1`, which activity change, negative = inhibition is on record?
**A.** Its activity change, negative = inhibition is inactive: 150%.

**Q.** With `CC[C@@]12C(=O)N(c3cccc(Br)c3)C(=O)N1[C@H](c1ccc(OC)cc1)[C@@H]1C(=O)N(C(C)(C)C)C(=O)[C@@H]12` as the molecule, how does the activity change, negative = inhibition read?
**A.** Its activity change, negative = inhibition is inconclusive: -55.2%.

**Q.** Which activity change, negative = inhibition does the source give for `COc1ccc2cc1Oc1ccc(cc1)C[C@H]1c3c(cc4c(c3Oc3cc5c(cc3OC)CCN(C)[C@@H]5C2)OCO4)CCN1C` here?
**A.** Its activity change, negative = inhibition is inactive: -38.2%.

**Q.** For `COc1ccc(OC(C)C(=O)N(C)Cc2nc(-c3ccc(OC)cc3)no2)cc1` (centres undefined), which activity change, negative = inhibition is on record?
**A.** The activity change, negative = inhibition was active: -64.5%.

**Q.** With `CCCc1nc2ccccc2c(=O)n1/N=C/c1ccccc1O` as the molecule, how does the activity change, negative = inhibition read?
**A.** The activity change, negative = inhibition was inconclusive: -56.5%.

**Q.** Which activity change, negative = inhibition does the source give for `CCc1ccccc1NC(=O)c1nc2nc(C)cc(C(F)F)n2n1` here?
**A.** Its activity change, negative = inhibition is inconclusive: -47.5%.

**Q.** With `CN=c1scc(-c2cc(OC)ccc2OC)n1/N=C/c1c(C)[nH]c2ccccc12` as the molecule, how does the activity change, negative = inhibition read?
**A.** Its activity change, negative = inhibition is active: -85.5%.

**Q.** For `Cc1ccccc1OCC(=O)N/N=C/c1ccc([N+](=O)[O-])o1`, which activity change, negative = inhibition is on record?
**A.** Its activity change, negative = inhibition is active: -86.2%.

**Q.** Which activity change, negative = inhibition does the source give for `O=C(Nc1nnc(C2=COCCO2)o1)c1ccc(S(=O)(=O)N2CCCC2)cc1` here?
**A.** Its activity change, negative = inhibition is inconclusive: -47%.

**Q.** With `O=C(NCCCN1CCN(c2ccccc2F)CC1)c1ccc2nc(Cc3ccccc3)oc2c1` as the molecule, how does the activity change, negative = inhibition read?
**A.** Its activity change, negative = inhibition is inactive: -2.79%.

**Q.** For `COP(=O)(OC)c1nc(-c2ccc(C)cc2)oc1N1CCCCC1`, which activity change, negative = inhibition is on record?
**A.** Its activity change, negative = inhibition is inconclusive: -55.8%.

**Q.** With `CC1CCN(S(=O)(=O)c2ccc3nc(Nc4cccc(F)c4)ccc3c2)CC1` as the molecule, how does the activity change, negative = inhibition read?
**A.** The activity change, negative = inhibition was active: -102%.

**Q.** For `O=C(Nc1nc(-c2ccc(S(=O)(=O)N3CCCCCC3)cc2)cs1)c1ccccc1`, which activity change, negative = inhibition is on record?
**A.** Its activity change, negative = inhibition is active: -72.9%.

**Q.** For `Cc1ccc(N2CC(C(=O)N3CCCc4ccccc43)CC2=O)cc1` (centres undefined), which activity change, negative = inhibition is on record?
**A.** The activity change, negative = inhibition was inconclusive: -41.6%.

**Q.** With `O=c1c(N2CCN(c3ccc(F)cc3)CC2)csc2ccc(F)cc12` as the molecule, how does the activity change, negative = inhibition read?
**A.** Its activity change, negative = inhibition is inactive: -8.45%.

**Q.** With `CCCn1c(=O)c2sccc2n2c(CCCC(=O)N3CCN(c4ccc(OC)cc4)CC3)nnc12` as the molecule, how does the activity change, negative = inhibition read?
**A.** Its activity change, negative = inhibition is inconclusive: -59.6%.

**Q.** Which activity change, negative = inhibition does the source give for `O=C(NCC1CCCO1)C(=O)N/N=C/c1ccc(O)c(Cl)c1` (centres undefined) here?
**A.** The activity change, negative = inhibition was inconclusive: -40.2%.

**Q.** For `O=C(CCl)N1c2ccccc2SCC1c1ccccc1` (centres undefined), which activity change, negative = inhibition is on record?
**A.** The activity change, negative = inhibition was active: -98%.

**Q.** Which activity change, negative = inhibition does the source give for `COc1ccc(C2(C)NC(=O)N(CC(=O)Nc3ccc(S(=O)(=O)N4CCCC4)cc3)C2=O)cc1` (centres undefined) here?
**A.** Its activity change, negative = inhibition is inactive: 5.11%.

**Q.** For `COc1ccc(C(=O)NCCNc2nc3cc(C)cc(C)c3cc2C#N)c(OC)c1`, which activity change, negative = inhibition is on record?
**A.** Its activity change, negative = inhibition is inconclusive: -52.9%.

**Q.** For `C/C(CS(=O)(=O)c1ccc(Cl)c(Cl)c1)=N/NC(N)=S`, which activity change, negative = inhibition is on record?
**A.** Its activity change, negative = inhibition is active: -69.7%.

**Q.** For `CCC1(C)Cc2nc3[nH]c(=S)n(-c4ccc(C)cc4)c(=O)c3cc2CO1` (centres undefined), which activity change, negative = inhibition is on record?
**A.** The activity change, negative = inhibition was inconclusive: -42%.

**Q.** Which activity change, negative = inhibition does the source give for `CC(C)CCNC(=S)Nc1ccc(Br)cc1` here?
**A.** Its activity change, negative = inhibition is inconclusive: -49.3%.

**Q.** For `O=C1CS/C(=N/N=C2C3CC4CC(C3)CC2C4)N1`, which activity change, negative = inhibition is on record?
**A.** The activity change, negative = inhibition was inconclusive: -46.3%.

**Q.** Which activity change, negative = inhibition does the source give for `Cc1ccc(-c2cnc(C3CC3)o2)cc1S(=O)(=O)Nc1ccc(F)cc1Cl` here?
**A.** The activity change, negative = inhibition was inactive: -17.2%.

**Q.** For `CC1CCN(c2ccc3nnc(CCC(=O)N4CCN(c5ccc(F)cc5)CC4)n3n2)CC1`, which activity change, negative = inhibition is on record?
**A.** The activity change, negative = inhibition was inconclusive: -42.8%.

**Q.** Which activity change, negative = inhibition does the source give for `Cn1cc(S(=O)(=O)N2CCN(c3cccc(C(F)(F)F)c3)CC2)c(=O)n(C)c1=O` here?
**A.** The activity change, negative = inhibition was inconclusive: -55.4%.

**Q.** With `Cc1c(OCC(=O)NCCN2CCOCC2)ccc2c1oc(=O)c1ccccc12` as the molecule, how does the activity change, negative = inhibition read?
**A.** The activity change, negative = inhibition was inconclusive: -40.1%.

**Q.** With `COc1cccc(CNc2sc3c(c2C(=O)Nc2ccc(OC)cc2OC)CCC3)c1` as the molecule, how does the activity change, negative = inhibition read?
**A.** Its activity change, negative = inhibition is inactive: -7.15%.

**Q.** For `O=C(NCc1cccnc1)Nc1ccccc1C(F)(F)F`, which activity change, negative = inhibition is on record?
**A.** Its activity change, negative = inhibition is inactive: 41.1%.

**Q.** Which activity change, negative = inhibition does the source give for `Cc1cccc(OCC(=O)Nc2ccc3c(c2)nc(CCN2CCN(C)CC2)n3C)c1` here?
**A.** The activity change, negative = inhibition was inconclusive: -41.1%.

**Q.** With `Cc1nc(SCC(=O)N(CC(C)C)C2CCS(=O)(=O)C2)c2c(C)c(C)sc2n1` (centres undefined) as the molecule, how does the activity change, negative = inhibition read?
**A.** Its activity change, negative = inhibition is inconclusive: -48.6%.

**Q.** For `CC(=O)c1ccc(C(=O)NC2CCCN(Cc3ccccc3F)C2)s1` (centres undefined), which activity change, negative = inhibition is on record?
**A.** Its activity change, negative = inhibition is inconclusive: -42.6%.

**Q.** Which activity change, negative = inhibition does the source give for `C[C@@H](C(=O)OCC(=O)NCCc1ccc(S(N)(=O)=O)cc1)N1C(=O)C2CCCCC2C1=O` (some centres undefined) here?
**A.** The activity change, negative = inhibition was active: -79.9%.

**Q.** Which activity change, negative = inhibition does the source give for `COc1ccc(Nc2nnc(-c3ccc4c(c3)OCO4)o2)cc1` here?
**A.** The activity change, negative = inhibition was inactive: 121%.

**Q.** Which activity change, negative = inhibition does the source give for `O=C(N/N=C/c1ccc(-c2ccccc2[N+](=O)[O-])o1)[C@H]1C[C@@H]1c1ccccc1` here?
**A.** Its activity change, negative = inhibition is inconclusive: -53.2%.

**Q.** For `COc1ccc(CCNC(=O)c2cc3c(=O)n4ccccc4nc3n(Cc3ccco3)c2=N)cc1OC`, which activity change, negative = inhibition is on record?
**A.** The activity change, negative = inhibition was inconclusive: -47%.

**Q.** For `CC1CCCN(c2ccc([N+](=O)[O-])cc2C(=O)c2ccccc2)C1` (centres undefined), which activity change, negative = inhibition is on record?
**A.** The activity change, negative = inhibition was active: -73.6%.

**Q.** With `CC1CCc2c(sc(NC(=O)Cn3cnc([N+](=O)[O-])n3)c2C(N)=O)C1` (centres undefined) as the molecule, how does the activity change, negative = inhibition read?
**A.** The activity change, negative = inhibition was active: -62.4%.

**Q.** For `CCOC(=O)CCCN(c1[nH]c(C)c(C)c1C#N)S(=O)(=O)c1ccc(C)cc1`, which activity change, negative = inhibition is on record?
**A.** The activity change, negative = inhibition was inconclusive: -45.1%.

**Q.** With `CCC(Sc1ccccn1)C(=O)Nc1cccc([N+](=O)[O-])c1` (centres undefined) as the molecule, how does the activity change, negative = inhibition read?
**A.** The activity change, negative = inhibition was inactive: -11.3%.

**Q.** For `CCCCN(Cc1cc2ccccc2[nH]c1=O)S(=O)(=O)c1ccc(C)cc1`, which activity change, negative = inhibition is on record?
**A.** Its activity change, negative = inhibition is inconclusive: -59.7%.

**Q.** Which activity change, negative = inhibition does the source give for `CC(C)S(=O)(=O)c1cnc(-c2ccccn2)nc1N` here?
**A.** The activity change, negative = inhibition was inconclusive: -44.7%.

**Q.** With `c1ccc(Cn2c(-c3ccccc3)nc3nc4ccccc4nc32)cc1` as the molecule, how does the activity change, negative = inhibition read?
**A.** Its activity change, negative = inhibition is inconclusive: -45.7%.

**Q.** With `CCC(C(=O)OCC(=O)c1c(N)n(CC(C)C)c(=O)n(C)c1=O)c1ccccc1` (centres undefined) as the molecule, how does the activity change, negative = inhibition read?
**A.** The activity change, negative = inhibition was inconclusive: -59.7%.

**Q.** With `O=C(Nc1ccccc1-c1ccccc1)c1ccc(=O)[nH]n1` as the molecule, how does the activity change, negative = inhibition read?
**A.** Its activity change, negative = inhibition is inconclusive: -48.8%.

**Q.** For `COc1ccc2[nH]c(C)c(CCNC(=S)Nc3ccc(F)cc3)c2c1`, which activity change, negative = inhibition is on record?
**A.** The activity change, negative = inhibition was inconclusive: -43.6%.

**Q.** Which activity change, negative = inhibition does the source give for `S=C(NC1CC1)NC1CCCc2ccccc21` (centres undefined) here?
**A.** Its activity change, negative = inhibition is active: -61.6%.
